In experiment [1] the target is T1, Dsn1-His-Flag (budding yeast) (UniProt P40568).
T1 sequence: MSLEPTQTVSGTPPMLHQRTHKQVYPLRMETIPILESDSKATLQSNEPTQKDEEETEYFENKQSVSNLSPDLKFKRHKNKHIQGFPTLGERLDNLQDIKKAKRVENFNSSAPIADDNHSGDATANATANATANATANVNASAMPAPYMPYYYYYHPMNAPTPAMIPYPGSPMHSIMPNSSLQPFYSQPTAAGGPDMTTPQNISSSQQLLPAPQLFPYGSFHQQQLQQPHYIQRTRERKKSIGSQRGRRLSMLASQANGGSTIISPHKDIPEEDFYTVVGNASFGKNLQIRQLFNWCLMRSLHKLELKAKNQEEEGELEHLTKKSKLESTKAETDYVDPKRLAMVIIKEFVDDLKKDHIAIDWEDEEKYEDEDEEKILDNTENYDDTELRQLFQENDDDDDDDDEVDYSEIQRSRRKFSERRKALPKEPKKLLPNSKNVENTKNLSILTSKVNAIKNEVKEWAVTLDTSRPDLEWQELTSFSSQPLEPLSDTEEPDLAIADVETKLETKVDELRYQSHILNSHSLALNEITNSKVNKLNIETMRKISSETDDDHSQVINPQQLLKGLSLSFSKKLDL
Put plainly: affinity purification with mass spectrometry; Dsn1-Flag immunoprecipitated on antibody-conjugated Dyna-beads from lysate of cells arrested in G1 with α-factor (5 µM); buffer H0.15 (25 mM Hepes pH 8.0, 150 mM KCl, 0.1% NP-40); eluted with 3XFlag peptide; MudPIT; triplicate, no-tag controls.

The target of experiment [2] is T1, Dsn1-His-Flag (budding yeast). Nature of the experiment: affinity purification with mass spectrometry; Dsn1-Flag immunoprecipitated on antibody-conjugated Dyna-beads from lysate of cdc15-1 cells arrested in anaphase (37°C for 3 h); buffer H0.15 (25 mM Hepes pH 8.0, 150 mM KCl, 0.1% NP-40); eluted with 3XFlag peptide; MudPIT; triplicate, no-tag controls.
Experiment [3] concerns the target T2, Dsn1-His-Flag (budding yeast), P40568.
T2 chain: T1 sequence
The experiment is described as above. The following applies: remark: other sources report otherwise.

The target is the same in experiment [4]. Put plainly: affinity purification with mass spectrometry; Dsn1-Flag immunoprecipitated on antibody-conjugated Dyna-beads from lysate of cells arrested in G1 with α-factor (5 µM); buffer H0.15 (25 mM Hepes pH 8.0, 150 mM KCl, 0.1% NP-40); eluted with 3XFlag peptide; MudPIT; triplicate, no-tag controls. Conditions: remark: other sources report otherwise.

No constants are given. Whether binding was seen depends on the method and setting. Binding seen in cells or lysates may run through a third protein. A yes stands for co-enrichment or nearness to the bait. Other partners may have been found. For some of these results: A no says only that the protein was not detected with the bait. Tags and fused reporters may be left off the sequences shown.

B1: Fin1 (Filaments in between nuclei) (protein, UniProt Q03898 1-291)
chain: MSNKSNRRSLRDIGNTIGRNNIPSDKDNVFVRLSMSPLRTTSQKEFLKPPMRISPNKTDGMKHSIQVTPRRIMSPECLKGYVSKETQSLDRPQFKNSNKNVKIQNSDHITNIIFPTSPTKLTFSNENKIGGDGSLTRIRARFKNGLMSPERIQQQQQQHILPSDAKSNTDLCSNTELKDAPFENDLPRAKLKGKNLLVELKKEEEDVGNGIESLTKSNTKLNSMLANEGKIHKASFQKSVKFKLPDNIVTEETVELKEIKDLLLQMLRRQREIESRLSNIELQLTEIPKHK
B1: the figures for the binding result in experiment [1] and in experiment [2] were “no binding (only cells arrested in G1 with α factor)” and “binds”, respectively.

B2: Glc7p catalytic subunit of the protein phosphatase type 1 (PP1) complex, P32598 1-312 (enzyme)
chain: MDSQPVDVDNIIDRLLEVRGSKPGQQVDLEENEIRYLCSKARSIFIKQPILLELEAPIKICGDIHGQYYDLLRLFEYGGFPPESNYLFLGDYVDRGKQSLETICLLLAYKIKYPENFFILRGNHECASINRIYGFYDECKRRYNIKLWKTFTDCFNCLPIAAIIDEKIFCMHGGLSPDLNSMEQIRRVMRPTDIPDVGLLCDLLWSDPDKDIVGWSENDRGVSFTFGPDVVNRFLQKQDMELICRAHQVVEDGYEFFSKRQLVTLFSAPNYCGEFDNAGAMMSVDESLLCSFQILKPAQKSLPRQAGGRKKK
Take B2: the binding result in experiment [3] and in experiment [4] was “no binding” in each case.

The values above are taken from paper PMC6605801.
